Source: US20210290612A1
These are yes or no findings as the source states them, for the method shown. Binding seen in cells or lysates may run through a third protein. Some entries that bind do so weakly or less than the wild type.

Protein sequences, listed by entry. Tags and fused reporters are not part of them. Lines headed by an entry give the natural chain unless they say otherwise; changes in a name come on top.
UniProt Q6VY07: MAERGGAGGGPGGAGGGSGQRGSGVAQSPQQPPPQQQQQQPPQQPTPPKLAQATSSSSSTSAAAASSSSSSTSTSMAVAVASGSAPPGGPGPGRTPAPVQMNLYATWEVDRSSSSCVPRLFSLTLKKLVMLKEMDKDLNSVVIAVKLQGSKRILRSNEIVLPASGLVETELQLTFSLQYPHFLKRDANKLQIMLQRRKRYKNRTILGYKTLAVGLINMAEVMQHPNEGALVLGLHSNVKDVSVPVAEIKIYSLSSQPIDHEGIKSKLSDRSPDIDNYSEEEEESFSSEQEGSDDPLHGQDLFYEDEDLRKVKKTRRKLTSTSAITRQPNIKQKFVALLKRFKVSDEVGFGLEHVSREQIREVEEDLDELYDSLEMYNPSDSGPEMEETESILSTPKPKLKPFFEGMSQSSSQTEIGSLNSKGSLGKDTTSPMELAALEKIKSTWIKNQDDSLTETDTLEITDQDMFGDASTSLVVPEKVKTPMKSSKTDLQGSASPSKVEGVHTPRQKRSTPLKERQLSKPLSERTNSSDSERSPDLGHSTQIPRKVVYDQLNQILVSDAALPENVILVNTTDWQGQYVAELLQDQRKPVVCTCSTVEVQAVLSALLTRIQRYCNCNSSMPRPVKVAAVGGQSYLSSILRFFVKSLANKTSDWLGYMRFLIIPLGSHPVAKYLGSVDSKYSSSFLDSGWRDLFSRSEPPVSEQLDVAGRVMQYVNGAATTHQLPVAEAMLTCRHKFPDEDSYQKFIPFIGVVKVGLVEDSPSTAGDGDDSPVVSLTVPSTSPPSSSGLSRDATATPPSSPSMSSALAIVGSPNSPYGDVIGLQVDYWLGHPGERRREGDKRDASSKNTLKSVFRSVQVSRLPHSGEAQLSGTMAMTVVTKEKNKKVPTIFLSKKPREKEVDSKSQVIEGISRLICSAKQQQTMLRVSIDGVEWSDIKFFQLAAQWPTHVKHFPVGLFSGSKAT
UniProt Q86VP3: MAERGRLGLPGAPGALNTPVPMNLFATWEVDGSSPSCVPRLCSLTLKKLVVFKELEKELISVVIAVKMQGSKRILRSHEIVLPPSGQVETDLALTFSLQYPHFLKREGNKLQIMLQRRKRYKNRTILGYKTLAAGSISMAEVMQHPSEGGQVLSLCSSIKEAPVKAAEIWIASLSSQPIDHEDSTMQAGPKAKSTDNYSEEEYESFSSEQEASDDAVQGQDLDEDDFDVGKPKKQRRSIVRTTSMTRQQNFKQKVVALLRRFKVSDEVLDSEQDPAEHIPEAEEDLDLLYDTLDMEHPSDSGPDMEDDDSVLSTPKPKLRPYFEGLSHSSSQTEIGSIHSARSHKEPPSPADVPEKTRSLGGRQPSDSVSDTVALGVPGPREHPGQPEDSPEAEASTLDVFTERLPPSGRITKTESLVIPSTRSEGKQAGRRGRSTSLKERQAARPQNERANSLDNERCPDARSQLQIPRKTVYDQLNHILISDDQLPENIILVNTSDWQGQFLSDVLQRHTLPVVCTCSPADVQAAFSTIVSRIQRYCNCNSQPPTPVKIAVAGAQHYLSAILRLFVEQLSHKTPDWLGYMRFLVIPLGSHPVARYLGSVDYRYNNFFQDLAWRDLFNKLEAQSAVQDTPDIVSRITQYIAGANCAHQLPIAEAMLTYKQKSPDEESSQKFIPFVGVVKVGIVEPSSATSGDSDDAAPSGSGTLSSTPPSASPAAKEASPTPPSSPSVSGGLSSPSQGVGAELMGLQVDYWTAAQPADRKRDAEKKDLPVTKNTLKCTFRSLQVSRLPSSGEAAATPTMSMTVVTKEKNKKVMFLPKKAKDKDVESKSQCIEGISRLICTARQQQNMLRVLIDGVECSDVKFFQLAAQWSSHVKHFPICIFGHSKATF
UniProt Q9UBN7: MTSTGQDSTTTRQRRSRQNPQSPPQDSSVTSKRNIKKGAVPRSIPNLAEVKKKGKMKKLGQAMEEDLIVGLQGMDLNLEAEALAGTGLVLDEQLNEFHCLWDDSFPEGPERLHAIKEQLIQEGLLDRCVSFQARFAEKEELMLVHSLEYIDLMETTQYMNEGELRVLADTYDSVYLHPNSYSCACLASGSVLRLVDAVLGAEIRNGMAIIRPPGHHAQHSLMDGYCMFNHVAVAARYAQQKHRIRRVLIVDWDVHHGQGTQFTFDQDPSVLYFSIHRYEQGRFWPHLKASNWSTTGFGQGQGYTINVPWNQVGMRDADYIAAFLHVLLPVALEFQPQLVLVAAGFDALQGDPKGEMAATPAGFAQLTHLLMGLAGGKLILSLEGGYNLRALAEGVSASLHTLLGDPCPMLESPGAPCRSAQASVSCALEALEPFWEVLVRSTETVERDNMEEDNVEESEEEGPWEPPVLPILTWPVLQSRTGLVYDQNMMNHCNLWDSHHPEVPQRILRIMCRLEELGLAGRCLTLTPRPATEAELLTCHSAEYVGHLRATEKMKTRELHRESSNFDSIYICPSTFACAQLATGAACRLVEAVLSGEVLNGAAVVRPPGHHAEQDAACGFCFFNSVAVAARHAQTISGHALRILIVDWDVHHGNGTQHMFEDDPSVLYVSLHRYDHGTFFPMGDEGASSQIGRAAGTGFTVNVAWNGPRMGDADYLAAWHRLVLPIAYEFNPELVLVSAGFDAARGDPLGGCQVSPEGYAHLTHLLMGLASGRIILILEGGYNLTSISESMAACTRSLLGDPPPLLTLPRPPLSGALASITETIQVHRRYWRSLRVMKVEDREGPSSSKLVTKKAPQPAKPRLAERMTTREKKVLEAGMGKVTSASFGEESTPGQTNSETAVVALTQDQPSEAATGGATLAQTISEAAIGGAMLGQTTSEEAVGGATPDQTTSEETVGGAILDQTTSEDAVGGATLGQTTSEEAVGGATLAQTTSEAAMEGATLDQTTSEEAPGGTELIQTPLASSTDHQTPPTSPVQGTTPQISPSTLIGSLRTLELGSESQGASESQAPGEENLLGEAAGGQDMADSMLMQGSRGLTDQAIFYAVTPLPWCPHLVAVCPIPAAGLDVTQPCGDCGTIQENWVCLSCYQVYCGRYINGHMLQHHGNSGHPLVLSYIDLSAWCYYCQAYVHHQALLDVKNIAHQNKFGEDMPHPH

Tests used:
[1] = biological target: Endogenous PACS1 (phosphofurin acidic cluster sorting protein 1) of control fibroblasts (Coriell 127160) (human) (UniProt Q6VY07); assay: co-immunoprecipitation of endogenous proteins from control fibroblasts, western blot
[2] = biological target: Endogenous PACS1 (phosphofurin acidic cluster sorting protein 1) of control fibroblasts (Coriell 127160) (human) (UniProt Q6VY07); assay: co-immunoprecipitation of endogenous proteins from control fibroblast lysate with anti-HDAC6, western blot
HA-tagged PACS2 (human) = HA-tagged PACS2 (human) (UniProt Q86VP3); assay: co-immunoprecipitation (anti-Flag) from co-transfected HCT116 cells, anti-HA western blot
HA-tagged PACS1 (human) = HA-tagged PACS1 (human) (UniProt Q6VY07); assay: as above
[3] = biological target: HA-tagged PACS1R203W (human) (UniProt Q6VY07); assay: as above

| Substance | binding [1] | binding [2] | binding (HA-tagged PACS2 (human)) | binding (HA-tagged PACS1 (human)) | binding [3] |
| --- | --- | --- | --- | --- | --- |
| Endogenous HDAC6 (histone deacetylase 6) of control fibroblasts (Coriell 127160) (from UniProt Q9UBN7 1-1215) (enzyme) | binds | binds |  |  |  |
| Flag-tagged HDAC6 (from UniProt Q9UBN7 1-1215) (enzyme) |  |  | binds | binds | binds |
